Where two headings read alike, the source gives them in different places. Some entries share one result that the patent states for a list of compounds.
Legend:
[1] = biological target: T1, tryptic activity of 20S proteasome (Bos taurus, UniProt P33672+Q2TBP0); assay: 20S proteasome tryptic activity inhibition assay (CBZ-D-Ala-Leu-Arg-AMC cleavage); assay type: biochemical, bovine; conditions: 15 minutes at 37° C.; for IC50: read-out: tryptic activity inhibition, active as inhibitors at
T1 construct: was purified to homogeneity from bovine brain according to published methods; from tissue; host or cells: bovine brain

Protein sequences, listed by entry. Tags and fused reporters are not part of them. Lines headed by an entry give the natural chain unless they say otherwise; changes in a name come on top.
UniProt P33672: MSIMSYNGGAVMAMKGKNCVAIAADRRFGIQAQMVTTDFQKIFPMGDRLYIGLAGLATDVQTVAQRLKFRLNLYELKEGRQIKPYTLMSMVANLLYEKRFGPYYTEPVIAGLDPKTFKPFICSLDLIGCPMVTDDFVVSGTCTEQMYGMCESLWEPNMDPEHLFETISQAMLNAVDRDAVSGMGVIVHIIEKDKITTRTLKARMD
UniProt Q2TBP0: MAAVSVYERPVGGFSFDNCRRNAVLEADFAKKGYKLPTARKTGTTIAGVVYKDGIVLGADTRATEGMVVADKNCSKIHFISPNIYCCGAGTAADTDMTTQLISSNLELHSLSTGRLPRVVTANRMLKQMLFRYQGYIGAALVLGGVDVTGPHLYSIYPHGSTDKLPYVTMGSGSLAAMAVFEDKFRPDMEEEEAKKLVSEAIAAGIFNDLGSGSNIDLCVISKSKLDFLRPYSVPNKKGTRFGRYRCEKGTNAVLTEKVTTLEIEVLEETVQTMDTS
UniProt Q3MHN0: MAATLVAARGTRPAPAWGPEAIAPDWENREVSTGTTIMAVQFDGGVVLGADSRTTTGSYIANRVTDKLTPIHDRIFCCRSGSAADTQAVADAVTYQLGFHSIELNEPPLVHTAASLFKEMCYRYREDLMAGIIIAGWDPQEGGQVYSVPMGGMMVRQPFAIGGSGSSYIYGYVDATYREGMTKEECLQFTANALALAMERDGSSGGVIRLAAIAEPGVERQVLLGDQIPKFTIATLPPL

[2] = biological target: T2, peptidylglutamyl activity of 20S proteasome (Bos taurus, UniProt Q2TBP0+Q3MHN0); assay: 20S proteasome peptidylglutamyl activity inhibition assay (CBZ-D-Ala-Leu-Glu-AMC cleavage); assay type: biochemical; conditions: Example 6: 2 μg 20S proteasome from bovine brain, substrate CBZ D-Ala-Leu-Glu-AMC, 15 minutes at 37° C.; for IC50: read-out: peptidylglutamyl activity inhibition, active at
T2 construct: was purified to homogeneity from bovine brain according to published methods; from tissue; host or cells: bovine brain

[3] = Example 4: 2 μg 20S proteasome from bovine brain, substrate CBZ-D-Ala-Leu-Arg-AMC
[4] = Example 5: 20 μg 20S proteasome from bovine brain, substrate CBZ D-Ala-Leu-Arg-AMC

Structure (SMILES) | tryptic activity inhibition, active as inhibitors at [1, 3] [µg/mL] | tryptic activity inhibition, active as inhibitors at [1, 4] [µg·mL] | peptidylglutamyl activity inhibition, active at [2] [µg/mL] | IC50 [1, 3] [µM] | IC50 [1, 4] [µM] | IC50 [2] [µM]
CC(C)CC(NC(=O)C(Cc1cccnc1)NC(=O)C(=O)Cc1c[nH]c2ccccc12)C(=O)NC(Cc1ccccc1)C(=O)O (stereo not drawn) [Compound 116] | > 10 | > 10 | > 10 | – | – | –
CC(C)CC(NC(=O)C(Cc1ccc2ccccc2c1)NC(=O)C(=O)Cc1c[nH]c2ccccc12)C(=O)NC(Cc1ccccc1)C(=O)O (stereo not drawn) [Compound 117] | > 10 | > 10 | > 10 | – | – | –
CC(C)CC(NC(=O)C(Cc1ccc(-c2ccccc2)cc1)NC(=O)C(=O)Cc1c[nH]c2ccccc12)C(=O)NC(Cc1ccccc1)C(=O)O (stereo not drawn) [Compound 118] | > 10 | > 10 | > 10 | – | – | –
CCCCC(NC(=O)C(CC(C)C)NC(=O)CNC(=O)C(=O)Cc1c[nH]c2ccccc12)C(=O)O (stereo not drawn) [Compound 119] | > 10 | > 10 | > 10 | – | – | –
CCCCC(NC(=O)C(CC(C)C)NC(=O)CCNC(=O)C(=O)Cc1c[nH]c2ccccc12)C(=O)O (stereo not drawn) [Compound 120] | > 10 | > 10 | > 10 | – | – | –
CCCCC(NC(=O)C(CC(C)C)NC(=O)C(CCCC)NC(=O)C(=O)Cc1c[nH]c2ccccc12)C(=O)O (stereo not drawn) [Compound 121] | > 10 | > 10 | > 10 | – | – | –
CCCCC(NC(=O)C(CC(C)C)NC(=O)C(Cc1ccccc1)NC(=O)C(=O)Cc1c[nH]c2ccccc12)C(=O)O (stereo not drawn) [Compound 122] | > 10 | > 10 | > 10 | – | – | –
CCCCC(NC(=O)C(CC(C)C)NC(=O)C(NC(=O)C(=O)Cc1c[nH]c2ccccc12)C(C)O)C(=O)O (stereo not drawn) [Compound 123] | > 10 | > 10 | > 10 | – | – | –
CCCCC(NC(=O)C(CC(C)C)NC(=O)C(C)NC(=O)C(=O)Cc1c[nH]c2ccccc12)C(=O)O (stereo not drawn) [Compound 124] | > 10 | > 10 | > 10 | – | – | –
CCCC[C@H](NC(=O)[C@@H](CC(C)C)NC(=O)[C@H](CC(=O)O)NC(=O)C(=O)Cc1c[nH]c2ccccc12)C(=O)O [Compound 125] | – | – | – | > 18.4 | > 18.4 | > 18.4
CCCCC(NC(=O)C(CC(C)C)NC(=O)C(NC(=O)C(=O)Cc1c[nH]c2ccccc12)C(C)C)C(=O)O (stereo not drawn) [Compound 126] | > 10 | > 10 | > 10 | – | – | –
CCCCC(NC(=O)C(CC(C)C)NC(=O)C(CCC)NC(=O)C(=O)Cc1c[nH]c2ccccc12)C(=O)O (stereo not drawn) [Compound 127] | – | – | – | > 18.9 | > 18.9 | > 18.9
CCCCC(NC(=O)C(CC(C)C)NC(=O)C(Cc1ccc(O)cc1)NC(=O)C(=O)Cc1c[nH]c2ccccc12)C(=O)O (stereo not drawn) [Compound 128] | > 10 | > 10 | > 10 | – | – | –
CCCCC(NC(=O)C(CC(C)C)NC(=O)C(NC(=O)C(=O)Cc1c[nH]c2ccccc12)C(C)CC)C(=O)O (stereo not drawn) [Compound 129] | > 10 | > 10 | > 10 | – | – | –
CCCCC(NC(=O)C(CC(C)C)NC(=O)C(CC1CCCCC1)NC(=O)C(=O)Cc1c[nH]c2ccccc12)C(=O)O (stereo not drawn) [Compound 130] | > 10 | > 10 | > 10 | – | – | –
CCCCC(NC(=O)C(CC(C)C)NC(=O)C(Cc1cccnc1)NC(=O)C(=O)Cc1c[nH]c2ccccc12)C(=O)O (stereo not drawn) [Compound 131] | > 10 | > 10 | > 10 | – | – | –
CCCCC(NC(=O)C(CC(C)C)NC(=O)C(Cc1ccc2ccccc2c1)NC(=O)C(=O)Cc1c[nH]c2ccccc12)C(=O)O (stereo not drawn) [Compound 132] | > 10 | > 10 | > 10 | – | – | –

Structure (SMILES) | tryptic activity inhibition, active as inhibitors at [1, 3] [µg/mL] | tryptic activity inhibition, active as inhibitors at [1, 4] [µg·mL] | peptidylglutamyl activity inhibition, active at [2] [µg/mL] | IC50 [1, 3] [µM] | IC50 [1, 4] [µM] | IC50 [2] [µM]
CCCCC(NC(=O)C(CC(C)C)NC(=O)C(Cc1ccc(-c2ccccc2)cc1)NC(=O)C(=O)Cc1c[nH]c2ccccc12)C(=O)O (stereo not drawn) [Compound 133] | > 10 | > 10 | > 10 | – | – | –
CC(C)CC(NC(=O)CNC(=O)C(=O)Cc1c[nH]c2ccccc12)C(=O)NC(CC(=O)O)C(=O)O (stereo not drawn) [Compound 134] | > 10 | > 10 | > 10 | – | – | –
CC(C)CC(NC(=O)CCNC(=O)C(=O)Cc1c[nH]c2ccccc12)C(=O)NC(CC(=O)O)C(=O)O (stereo not drawn) [Compound 135] | > 10 | > 10 | > 10 | – | – | –
CCCCC(NC(=O)C(=O)Cc1c[nH]c2ccccc12)C(=O)NC(CC(C)C)C(=O)NC(CC(=O)O)C(=O)O (stereo not drawn) [Compound 136] | > 10 | > 10 | > 10 | – | – | –
CC(C)CC(NC(=O)C(Cc1ccccc1)NC(=O)C(=O)Cc1c[nH]c2ccccc12)C(=O)NC(CC(=O)O)C(=O)O (stereo not drawn) [Compound 137] | > 10 | > 10 | > 10 | – | – | –
CC(C)CC(NC(=O)C(NC(=O)C(=O)Cc1c[nH]c2ccccc12)C(C)O)C(=O)NC(CC(=O)O)C(=O)O (stereo not drawn) [Compound 138] | > 10 | > 10 | > 10 | – | – | –
CC(C)CC(NC(=O)C(C)NC(=O)C(=O)Cc1c[nH]c2ccccc12)C(=O)NC(CC(=O)O)C(=O)O (stereo not drawn) [Compound 139] | > 10 | > 10 | > 10 | – | – | –
CCC(NC(=O)C(=O)Cc1c[nH]c2ccccc12)C(=O)NC(CC(C)C)C(=O)NC(CC(=O)O)C(=O)O (stereo not drawn) [Compound 140] | > 10 | > 10 | > 10 | – | – | –
CC(C)CC(NC(=O)C(NC(=O)C(=O)Cc1c[nH]c2ccccc12)C(C)C)C(=O)NC(CC(=O)O)C(=O)O (stereo not drawn) [Compound 141] | > 10 | > 10 | > 10 | – | – | –
CCCC(NC(=O)C(=O)Cc1c[nH]c2ccccc12)C(=O)NC(CC(C)C)C(=O)NC(CC(=O)O)C(=O)O (stereo not drawn) [Compound 142] | > 10 | > 10 | > 10 | – | – | –
CC(C)CC(NC(=O)C(Cc1ccc(O)cc1)NC(=O)C(=O)Cc1c[nH]c2ccccc12)C(=O)NC(CC(=O)O)C(=O)O (stereo not drawn) [Compound 143] | > 10 | > 10 | > 10 | – | – | –
CCC(C)C(NC(=O)C(=O)Cc1c[nH]c2ccccc12)C(=O)NC(CC(C)C)C(=O)NC(CC(=O)O)C(=O)O (stereo not drawn) [Compound 144] | > 10 | > 10 | > 10 | – | – | –
CC(C)CC(NC(=O)C(CC1CCCCC1)NC(=O)C(=O)Cc1c[nH]c2ccccc12)C(=O)NC(CC(=O)O)C(=O)O (stereo not drawn) [Compound 145] | – | – | – | > 17.1 | > 17.1 | > 17.1
CC(C)CC(NC(=O)C(Cc1cccnc1)NC(=O)C(=O)Cc1c[nH]c2ccccc12)C(=O)NC(CC(=O)O)C(=O)O (stereo not drawn) [Compound 146] | – | – | – | > 17.3 | > 17.3 | > 17.3
CC(C)CC(NC(=O)C(Cc1ccc2ccccc2c1)NC(=O)C(=O)Cc1c[nH]c2ccccc12)C(=O)NC(CC(=O)O)C(=O)O (stereo not drawn) [Compound 147] | > 10 | > 10 | > 10 | – | – | –
CC(C)CC(NC(=O)C(Cc1ccc(-c2ccccc2)cc1)NC(=O)C(=O)Cc1c[nH]c2ccccc12)C(=O)NC(CC(=O)O)C(=O)O (stereo not drawn) [Compound 148] | > 10 | > 10 | > 10 | – | – | –

— patent US6781000B1, “Alpha-ketoamide inhibitors of 20S proteasome” (CV Theurapeutics, Inc., priority 1998, dated 2004)
